A word on the AC50: it is the midpoint of the concentration-response curve, whichever way the signal moves. A lower AC50 goes with greater potency.

Some of the results follow. These are further read-outs of the screen, such as a control signal, another cell line or another target. No call is given for them. Most of these compounds were active or inconclusive in the main read-out, so they are no random draw. Potencies come from curve fits of mixed quality, noted in brackets.

This assay can be described thus: qHTS Assay for Lipid Storage Modulators in Drosophila S3 Cells.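 As to cell number change: cells counted by Cell Tracker Red CMTPX staining in the red channel.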 The conditions noted are these: BODIPY lipid droplet fluorescence, 18-24 h; for cell number change: measured here: cell count max response, cells fed with added oleic acid. A digest of the protocol:
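Drosophila S3 cells got compounds at several concentrations plus oleic acid (400 uM solution). Laser-scanning cytometry with 488 nm excitation read lipid droplets at 500-530 nm and cells at 575-640 nm. Percent activity was relative to 20 uM Triacsin C.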
In general terms: In qHTS, concentration-response curves come from the screen itself.

Where [1] appears, read: measured here: cell number channel AC50, cells fed with added oleic acid.
Setting [2] is: measured here: lipid fluorescence (Fed channel) AC50, cells fed with added oleic acid.

In the case of `O=C1C(Cl)=C(N2CCCCCC2)C(=O)N1c1ccc(Cl)cc1`, the cell number change is -14.4%.

`Cn1c(SCC(=O)NC(C)(C)C)nnc1-c1cnccn1`: the cell number change is -19.8%. For the same molecule, the AC50 under setting [1] is 6.51 µM [falling, single point]. For the same molecule, the AC50 under setting [2] is 1.3 µM [falling, partial curve].

Regarding `C=C(C)C(=O)Nc1cccc(C2=NOC3(C2)C[C@H](C(N)=O)N(C(=O)c2ccccc2)C3)c1` (stereo not given in full), the cell number change is 26.4%. Also, the AC50 under setting [2] is 20.6 µM [rising, partial curve, poor fit].

With `CCOc1ccccc1NC(=O)CCc1nnc2ccc(N3CCC(C)CC3)nn12`, the cell number change turned out to be 5.76%.

As to `CC(=O)c1cc(C#N)c(SCC(=O)OC(C)(C)C)nc1C`, the cell number change is -16.4%. Also, the AC50 under setting [2] is 29.1 µM [falling, single point].

With `C[C@@H]1NC(=O)[C@H](CCC(N)=O)NC(=O)c2cc([N+](=O)[O-])cc(I)c2NCCC[C@@H](C(N)=O)NC1=O`, the cell number change was determined as 11%. The AC50 under setting [2] is 0.92 µM [rising, full curve, poor fit].

As for `CCOC(=O)c1[nH]c(C)c(C(=O)N2CCN(C(=O)OCC)CC2)c1CC`, the AC50 under setting [1] was 3.66 µM [falling, partial curve].

Regarding `COc1ccc(NC(=O)C(=O)NNC(=O)COc2ccc(Cl)cc2)c(OC)c1`, the cell number change is 0.634%. Besides, the AC50 under setting [2] was 31.6 µM [rising, single point].

On to `COc1ccc(OCC(=O)NNC(=O)c2cccnc2)cc1`, for which the cell number change came to 18.4%. Under setting [2], the AC50 is 20.6 µM [rising, single point].

Turning to `COc1cccc(Nc2cc(N3CCOCC3)c3nonc3c2[N+](=O)[O-])c1`, the cell number change is -22.6%. The AC50 under setting [1] was 0.092 µM [falling, full curve, poor fit]. Further, the AC50 under setting [2] is 0.092 µM [falling, full curve, poor fit].

Consider `CC(=O)Nc1nc2c(ncn2COCCOC(C)=O)c(=O)[nH]1`, for which the AC50 under setting [1] was 4.11 µM [falling, single point].

In the case of `O=C(CCNC(=O)N1CCn2c1nc1ccccc12)NCc1ccccc1`, the cell number change stood at 32%. Under setting [1], the AC50 was 29.1 µM [rising, single point].

On to `CCC1=NC(c2ccccc2OC)N(O)C1(C)C` (stereo not given), for which the cell number change amounted to 3.18%.

For `Cc1ccc(C(=O)NCCCc2ccccc2)s1`, the cell number change worked out at 6.51%. In addition, the AC50 under setting [2] was 32.6 µM [rising, single point].

Regarding `Cc1ccc(-c2cc(N)n3nc(-c4ccc(C)cc4)cc3n2)cc1`, the cell number change was -33.9%. In addition, the AC50 under setting [1] is 29.1 µM [falling, single point]. For the same molecule, the AC50 under setting [2] was 29.1 µM [falling, partial curve, poor fit].

`Cc1ccc2c(c1)C1CN(C)CCC1N2C(=O)c1cccc(S(=O)(=O)N2CC(C)CC(C)C2)c1` (stereo not given): the cell number change worked out at 30.9%. Further, the AC50 under setting [2] was 0.58 µM [rising, single point].

For the molecule `O=C(OCC(=O)N1CCCC1)c1ccc(Cl)c([N+](=O)[O-])c1`, the cell number change is -19.2%.

Take `CCCOc1ccc(C(CC(=O)O)NC(=O)c2cccs2)cc1` (stereo not given): the cell number change was determined as 0.724%. Further, under setting [1], the AC50 is 0.231 µM [falling, full curve]. Under setting [2], the AC50 is 0.00731 µM [falling, full curve, poor fit].

As to `Cc1cc(Cl)ccc1NC(=S)NCc1ccc(Cl)cc1`, the cell number change is -46.7%.

In the case of `COC(=O)C1C(=O)C(C(=O)/C=C/c2ccccc2)C(=O)CC1(C)C` (stereo not given), the cell number change amounted to 2.57%.

In the case of `CCOc1ccc(-c2csc(NC(=O)c3cccc(N4C(=O)CCC4=O)c3)n2)cc1`, the cell number change is -9.51%.

On to `O=C(NCc1cccs1)C1CCC(CNS(=O)(=O)c2cccc3nsnc23)CC1` (stereo not given), for which the cell number change is 12.1%. The AC50 under setting [2] was 0.00517 µM [falling, full curve, poor fit].

`COc1cccc(C(=O)NCC(=O)NCc2cc(=O)n(C)c(=O)n2C)c1`: the cell number change is -5.5%. Further, the AC50 under setting [2] was 10.3 µM [rising, partial curve].

On to `CCn1c(COc2ccc(=O)n(-c3ccccc3)n2)nnc1SCC(=O)OC`, for which the cell number change was 32.5%. Also, the AC50 under setting [1] is 0.231 µM [rising, full curve]. Besides, under setting [2], the AC50 is 0.058 µM [rising, full curve, poor fit].

As for `CCc1ccc(OCC(=O)OCC(=O)c2c(N)n(C)c(=O)n(C)c2=O)cc1`, the cell number change was -8.4%. For the same molecule, the AC50 under setting [2] was 1.03 µM [falling, full curve].

For `O=C(O)CCCNC(=O)c1nn(Cc2ccccc2)c(=O)c2ccccc12`, the cell number change came to 18.8%. Besides, the AC50 under setting [2] was 0.164 µM [falling, partial curve, poor fit].

Consider `O=P(Cc1ccccc1)(c1ccccc1)c1ccccc1`, for which the cell number change came to 28.9%. The AC50 under setting [2] is 29.1 µM [rising, single point].

For `O=C(Cc1ccc(-c2ccccc2)cc1)N1CCOCC1`, the cell number change turned out to be 10.8%. Besides, the AC50 under setting [2] was 29.1 µM [falling, single point].

As for `Cc1ccc(S(=O)(=O)CCSc2nccn2C)cc1`, the cell number change is -46.5%. Also, the AC50 under setting [1] is 13 µM [falling, partial curve, poor fit]. The AC50 under setting [2] is 16.4 µM [falling, single point].

In the case of `O=C1NC(=O)C2C1C(c1ccc([N+](=O)[O-])cc1)=NN2Cc1ccccc1` (stereo not given), the cell number change is -6.89%.

As to `COc1cccc(C(=O)NC2CCCc3c2cnn3-c2ccc(C)c(C)c2)c1OC` (stereo not given), the cell number change is -32.6%. The AC50 under setting [1] is 10.3 µM [falling, partial curve, poor fit].

Consider `Cc1ccc(-c2nnc(CSc3nc(C)nc4sc(C)c(C)c34)o2)cc1`, for which the cell number change was determined as 12.5%. Further, the AC50 under setting [1] was 0.0103 µM [rising, full curve, poor fit]. For the same molecule, the AC50 under setting [2] was 6.51 µM [rising, single point].

Consider `Cc1cc(C)n(C(C)CNS(=O)(=O)c2ccccc2)n1` (stereo not given), for which the cell number change stood at 16%. For the same molecule, under setting [2], the AC50 was 29.1 µM [rising, single point].

As for `CCN(Cc1ccccc1)Cc1cc(OC)cc(OC)c1`, the cell number change is -24.8%. In addition, the AC50 under setting [2] was 0.0058 µM [falling, full curve, poor fit].

For `CC(C)=CCC/C(C)=C/C=N/NC(=O)c1cccc([N+](=O)[O-])c1`, the cell number change is -35.8%. Further, the half-maximal activity concentration (AC50) under setting [1] was 16.4 µM [falling, single point]. Under setting [2], the concentration at half-maximal activity (AC50) is 18.4 µM [falling, single point].

On to `Cc1cccc(NC(=O)CCc2ccc(S(=O)(=O)NC3CCCCC3)cc2)c1`, for which the cell number change was determined as 39.2%. Besides, the AC50 under setting [1] was 9.2 µM [rising, partial curve].

With `COc1ccccc1CN(C(=O)c1cnccn1)C(C(=O)NC1CCCCC1)c1cc(OC)c(OC)c(OC)c1` (stereo not given), the cell number change came out at 17.9%. Also, the AC50 under setting [2] was 0.0731 µM [rising, partial curve, poor fit].

As to `CCCSc1ccc([C@@H]2[C@H]3C(=O)N(CC)C(=O)[C@H]3[C@]3(C(=O)OC)CCCCN23)cc1OC`, the cell number change is 10.4%. In addition, the AC50 under setting [1] was 6.51 µM [falling, single point]. The AC50 under setting [2] was 16.4 µM [falling, partial curve, poor fit].

The values are drawn from PubChem BioAssay AID2685 (National Center for Advancing Translational Sciences (NCATS), 2010).
